These are yes or no findings as the source states them, for the method shown. For some assays here: Binding seen in cells or lysates may run through a third protein. Some results given as binding are weak or reduced against the parent protein; the word gives no strength. For some assays here: Where a sequence is shown, tags or fusion partners need not be part of it.
Legend:
[1] = target: T1, DcR3-IgG (IgG1-Fc fusion of the ECD of DcR3) (human) (UniProt O95407); assay: co-immunoprecipitation and Western blot
T1 sequence (looked up): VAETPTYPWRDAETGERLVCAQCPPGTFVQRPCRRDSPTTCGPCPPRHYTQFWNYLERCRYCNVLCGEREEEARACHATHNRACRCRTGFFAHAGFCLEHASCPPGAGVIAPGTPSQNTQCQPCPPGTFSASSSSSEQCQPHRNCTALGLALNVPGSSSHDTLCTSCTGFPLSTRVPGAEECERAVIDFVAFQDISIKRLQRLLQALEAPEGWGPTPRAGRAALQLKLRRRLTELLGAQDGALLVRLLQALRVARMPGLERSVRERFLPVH

Chains of the proteins cited; added tags and fusions are not shown. Lines headed by an entry give the natural chain unless they say otherwise; changes in a name come on top. Residues count along the entry.
UniProt O43557, residues 82-240: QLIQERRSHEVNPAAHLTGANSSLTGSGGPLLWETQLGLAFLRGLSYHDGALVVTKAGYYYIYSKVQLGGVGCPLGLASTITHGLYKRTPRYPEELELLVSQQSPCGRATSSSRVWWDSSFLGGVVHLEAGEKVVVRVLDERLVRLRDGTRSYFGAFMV
UniProt Q02223: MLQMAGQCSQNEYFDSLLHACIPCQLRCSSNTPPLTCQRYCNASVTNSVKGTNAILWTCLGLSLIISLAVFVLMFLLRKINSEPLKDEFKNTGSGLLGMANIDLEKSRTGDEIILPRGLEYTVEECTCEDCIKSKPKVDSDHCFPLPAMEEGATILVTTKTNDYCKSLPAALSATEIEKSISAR

[2] = target: TALL-1, membrane form on transfected COS 7 cells (chimeric ligand: TNF-alpha intracellular and transmembrane regions, TALL-1 extracellular region aa 75-285) (human) (UniProt P01375); assay: Fc fusion on ligand-transfected COS 7 cells, Cy3 staining

For “Flag-LIGHT (from UniProt O43557 82-240) (ligand)”, the binding [1] was “binds”.

“BCMA-ECD immunoadhesin (amino acids 5-51 of human BCMA fused to human IgG1 Fc) (from UniProt Q02223 5-51) (Fc fusion)” was tested, and the binding [2] was “binds”.

— US20060073146A1
